Source: publication PMC3462190, “A Peptidic Unconjugated GRP78/BiP Ligand Modulates the Unfolded Protein Response and Induces Prostate Cancer Cell Death” (PLoS ONE, 2012)

B1: Bag-1 peptide: internal sequence of 68 amino acids of Bag-1 (Bag1-L 202–269), HA-tagged, expressed from pcDNA3 (peptide)
chain: TPLSALGIQDGCRVMLIGKKNSPQEEVELKKLKHLEKSVEKIADQLEELNKELTGIQQGFLPKDLQAE
modifications: left off: HA, end not stated, kept

Experiment: Circular dichroism spectroscopy
Format: physicochemical
Conditions: for secondary structure by CD: HA-tagged fragment, 20 mM KHPO4, pH 6.8, 12 µM (N-term) or 11 µM (C-term)

Row | Molecule | secondary structure by CD | α-helical residues (CD estimate) | α-helical content (CD, 20 mM KHPO4 buffer, pH 6.8, 20°C, deconvolution)
1 | C-terminal peptide: 28 C-terminal fragment of the Bag-1 peptide (Bag-1L 241–269) (EKIADQLEELNKELTGIQQGFLPKDLQAE; left off: GST, end not stated, kept) | entirely unstructured | – | –
2 | N-terminal peptide: N-terminal 40 residues of the Bag-1 peptide (Bag-1L 202–241) (TPLSALGIQDGCRVMLIGKKNSPQEEVELKKLKHLEKSVE; left off: GST, end not stated, kept) | entirely unstructured | – | –
3 | B1 | – | ~17 residues | approximately 25%
